# In article PMC12040169 (PLOS Biology, 2025):
# Some of the results follow.
# Tested on: T1, CTL2-GFP (C. trachomatis L2/434/Bu, GFP-expressing)
# T1 construct: L2/434/Bu, GFP-expressing
# Set-up: species or system HeLa; Intracellular C. trachomatis growth in HeLa cells, bulk GFP fluorescence relative to DMSO
# Conditions: bulk GFP, single well; 28.5 h, 10 µM; inhibitor
row,SMILES,% of control remaining
1,CCn1cc(CCC(=O)NC2CCCOC2)c2ccccc21 (stereo not shown) [CBK283256],147.01%
2,Nc1nonc1NC(=O)N/N=C/c1ccc(C(F)(F)F)cc1 [CBK261813],82.9661%
3,Cc1ccc(CNC(=O)Cc2csc(N3CCCC3=O)n2)n1C [CBK305642],142.897%
4,O=C(c1ccc(F)cc1)[C@H]1CCCN(C(=O)C2CC2)C1 [CBK284326],116.922%
5,CC(CCCc1ccccc1)NC(=O)c1cc2c([nH]c1=O)CCC2 (stereo not shown) [CBK281528],150.687%
6,CN1C(=O)C(CCNc2ccccc2)S/C1=N/C1CC2C=CC1C2 (stereo not shown) [CBK073812],63.5694%
7,Clc1cccc(-c2cncc(N3CCN(Cc4ccccn4)CC3)n2)c1 [CBK037282],157.354%
8,COc1ccc(NC(=O)c2cc(-c3cccnc3)nc3c(C)c(C)ccc23)c(OC)c1 [CBK267746],117.512%
9,CC(=O)N1CCC[C@H]2NC(=O)CNC(=O)C3(C/C=C/C[C@H]21)CCN(Cc1ccccc1O)CC3 [CBK292054],129.138%
10,O=C(NC1CC1)c1cc(C2CCCN(Cc3cccc(F)c3)C2)no1 (stereo not shown) [CBK284588],79.1336%
11,O=C(c1cc2c(F)cccc2[nH]1)N(CCO)CCc1ccncc1 [CBK281644],117.478%
12,Nc1nc2nn([C@H]3C[C@@H](O)[C@@H](CO)O3)cc2c(=O)[nH]1 [CBK201218],81.8582%
13,Cc1c(C(=O)N2CCC(CN)C2)nnn1-c1ccc2ncccc2c1 (stereo not shown) [CBK304734],129.198%
14,c1ccc(COc2ccc(N3CCNCC3)cc2)cc1 [CBK012776C],128.025%
15,CCCCC(Sc1nc(N)cc(Cl)n1)c1cc(C)ccn1 (stereo not shown) [CBK016827],63.0681%
16,COC(C)(C(=O)Nc1ccc(Cl)nc1)c1cccc2ccccc12 (stereo not shown) [CBK091350],92.4925%
17,N#Cc1ccc(NC(=O)NCCc2cccs2)cc1 [CBK043736],108.376%
18,Cc1c(Cl)cccc1S(=O)(=O)Nc1c(C(=O)O)[nH]c2ccccc12 [CBK049889],118.002%
19,Cc1cc(C(=O)CSc2nnnn2-c2ccc(O)cc2)c(C)n1Cc1ccc(F)cc1 [CBK297081],140.279%
20,O=C(O)CCCn1cc(NC(=O)c2ccc(Br)o2)cn1 [CBK270042],93.5127%
21,COc1ccc(N2C(=O)CSC23C(=O)Nc2ccc(Br)cc23)cc1 (stereo not shown) [CBK093454],104.603%
22,NCC1OCCc2ccccc21 (stereo not shown) [CBK027717],114.43%
23,c1ccc(CCN2CCC(Oc3cncc(OCCN4CCOCC4)n3)C2)cc1 (stereo not shown) [CBK084497],140.858%
24,CCN(Cc1ccccc1)C(=O)Nc1ccc(C)cc1 [CBK155248],93.8219%
25,O=C(NCCN1CCCCC1)c1cccc(Oc2ccccc2)c1 [CBK270335],100.913%
26,Cc1cc(C)n(CC2(CNC(=O)C(c3ccccc3F)N(C)C)CC2)n1 (stereo not shown) [CBK306920],113.553%
27,O=C(c1ccccc1Cl)N1N=C(c2cccnc2)CC1c1ccccc1O (stereo not shown) [CBK269182],156.323%

# Gathered by group: the compounds so far containing bromine (2)
row,SMILES,% of control remaining
20,O=C(O)CCCn1cc(NC(=O)c2ccc(Br)o2)cn1 [CBK270042],93.5127%
21,COc1ccc(N2C(=O)CSC23C(=O)Nc2ccc(Br)cc23)cc1 (stereo not shown) [CBK093454],104.603%

# Carrying on:

row,SMILES,% of control remaining
1,CC(C(=O)N1CCOCC1)N(c1cc(Cl)ccc1Cl)S(C)(=O)=O (stereo not shown) [CBK270270],137.597%
2,CC(NC(=O)CCc1cccnc1)c1nc(-c2ccncc2)cs1 (stereo not shown) [CBK306243],121.377%
3,Cc1ccc(-c2nnc(CNC(=O)c3cccc(F)c3F)o2)s1 [CBK284641],130.254%
4,Cn1nccc1NS(=O)(=O)c1cccc2cccnc12 [CBK062069],96.4433%
5,COCCNc1nc(-c2cc(C(C)C)ccc2OC)ccc1C(=O)NCCNC(C)=O [CBK105985],100%
6,NC(=O)c1nc(-c2ccccc2)nc2c1[nH]c(=O)n2-c1cccc(Cl)c1 [CBK287544],124.093%
7,CCC12CN3CC(CC)(CN(C1)C3c1ccc([N+](=O)[O-])cc1)C2=O (stereo not shown) [CBK263689],129.189%
8,CCCN1C(=S)N(CCO)C(=O)/C1=C/C=C1/Oc2ccccc2N1CCC(=O)O [CBK261400],100%
9,CSCC(=O)N1C[C@@H]2C[C@H](C1)c1c(-c3cncnc3)ccc(=O)n1C2 [CBK289195],147.838%
10,CC(=O)Nc1ccc(S(=O)(=O)Nc2ccnc(N3CCNCC3)n2)cc1 [CBK000363C],80.6402%
11,CC1(C)CC(NC(=O)C2CCCN(S(C)(=O)=O)C2)c2ccccc2O1 (stereo not shown) [CBK304365],110.793%
12,c1cnc2[nH]c(C3CC3)c(CN3CCN4CCCCC4C3)c2c1 (stereo not shown) [CBK285313],152.653%
13,Cc1cc(C=O)c(C)n1-c1ccc(Oc2ccc([N+](=O)[O-])cn2)cc1 [CBK264167],82.4789%
14,OCCn1ncc2c(NCc3cccnc3-n3cccn3)ncnc21 [CBK305977],130.732%
15,COc1cccc(C2=CC(c3ccccc3Cl)N3N=NNC3=N2)c1 (stereo not shown) [CBK287943],146.857%
16,O=C(O)CCCCN1C(=O)c2ccccc2S1(=O)=O [CBK287189],119.557%
17,CCCNC(=O)c1ccc(C)c(NC(=O)NC2CCOC2)c1 (stereo not shown) [CBK306794],114.222%
18,COc1ccc(-c2nnc([C@H]3CCN(Cc4ccccn4)C3)o2)cc1 [CBK289401],119.265%
19,CCOC(=O)C(N)CSC1CC(=O)N(c2ccc(Br)cc2)C1=O (stereo not shown) [CBK017250C],132.756%
20,CCSc1ccnc2c1c(=O)n(C)c(=O)n2C [CBK287749],118.76%
21,CN1CCN(C(=O)c2ccc(-c3ccc(N4CCOCC4)cc3)nc2N(C)C)CC1 [CBK106114],100%
22,CC(=O)NC1(c2ccc(F)cc2)CCN(C(=O)C2CCCCC2)CC1 [CBK283546],109.419%
23,O=c1ccc(-c2cccs2)nn1C[C@H]1CCCN1 [CBK284313],129.17%
24,CNC(=O)CSc1nccnc1N1CCCC1 [CBK107748],117.52%
25,COC(=O)c1ccsc1NS(=O)(=O)c1ccccc1 [CBK026667],115.244%
26,CC(NC(=O)C1CCN(Cc2ncc[nH]2)CC1)c1ccc(F)cc1 (stereo not shown) [CBK148037],118.963%
27,Cc1ccc(-n2c3nc(=O)[nH]c(=O)c-3cc3c(Cl)cccc32)c(C)c1 [CBK287965],96.5641%

# Exported with bars between the fields: 2 of the compounds above.
row | SMILES | % of control remaining
11 | CC1(C)CC(NC(=O)C2CCCN(S(C)(=O)=O)C2)c2ccccc2O1 (stereo not shown) [CBK304365] | 110.793%
12 | c1cnc2[nH]c(C3CC3)c(CN3CCN4CCCCC4C3)c2c1 (stereo not shown) [CBK285313] | 152.653%

# Next part:

row,SMILES,% of control remaining
1,COc1ccc(CSc2nc3sc4c(c3c(=O)n2Cc2ccccc2)CCN(Cc2ccccc2)C4)cc1 [CBK263714],123.014%
2,COc1ccc([C@@]23CC[C@@H](NC(=O)Nc4cccc(S(=O)(=O)C(F)(F)F)c4)C[C@@H]2N(C)CC3)cc1OC [CBK051275T],101.718%
3,CCCCN(C)c1nccnc1-c1ccc(CO)cc1 [CBK037666],104.939%
4,COc1ccc(S(=O)(=O)N2CCN(C(=O)COc3ccc4ccccc4c3)CC2)cc1 [CBK263371],132.021%
5,CCn1cncc1CN1CC2CCCC(O)(c3ccc(C)cc3)C2C1 (stereo not shown) [CBK284374],112.063%
6,O=C(CCN1CCCCC1)Nc1ccc2c(=O)n3c(nc2c1)/C(=C/c1ccccc1)CC3 [CBK017786],11.8318%
7,COc1ccc(NC(=O)C2CCCN2c2nc(O)cc(C(F)(F)F)n2)c(OC)c1 (stereo not shown) [CBK003951],104.419%
8,O=C(c1cccc2ncccc12)N1CC[C@@H](c2ccccc2)[C@H](O)C1 [CBK283716],124.021%
9,Cc1cnn(C2(C(=O)O)CCN(C(=O)c3cccc(C#N)c3)CC2)c1 [CBK307058],88.8597%
10,CCOc1ccc(/N=C2/SC(C(=O)O)CC(=O)N2Cc2ccc3c(c2)OCO3)cc1 (stereo not shown) [CBK263296],113.978%
11,Fc1ccc2c(-c3ccccc3)noc2c1 [CBK025975],128.571%
12,O=C(NC1CCN(Cc2cc(F)cc(F)c2)CC1)c1cn2ccsc2n1 [CBK306970],118.707%
13,O=C1NCC2(C/C=C/CCOc3ccccc31)CCN(C(=O)CCN1CCCC1=O)CC2 [CBK292016],158.056%
14,N#CCCN(C(=O)Nc1ccc(Cl)cc1)C1CCCCC1 [CBK156365],88.4042%
15,CC(C(=O)Nc1cccc2[nH]ccc12)c1ccc(Cl)cc1 (stereo not shown) [CBK159647],114.954%
16,CN1CCC(CN(C)Cc2ccc3cccc(Cl)c3n2)C1 (stereo not shown) [CBK282615],116.79%
17,COc1cc(CNC23CC4CC(CC(C4)C2)C3)c(Cl)cc1OCC(=O)O [CBK269567],150.369%
18,CCOC(=O)c1ccccc1NS(=O)(=O)c1ccc(C)c([N+](=O)[O-])c1 [CBK045451],107.739%
19,CC(=O)Nc1cc(S(N)(=O)=O)c(F)cc1C [CBK034356],143.84%
20,CC(=O)Nc1ccc(S(=O)(=O)NCCSc2ccccn2)cc1 [CBK263576],100%
21,Cc1nc(C)n(CC2CCCN(Cc3nc4c(F)cccc4[nH]3)C2)n1 (stereo not shown) [CBK306218],136.882%
22,COc1cc([C@@]23CC[C@@H](NC(=O)Nc4ccc(F)c(F)c4)C[C@@H]2N(C)CC3)ccc1O [CBK049958C],99.2608%
23,NC(=O)NCc1ccc(F)cc1 [CBK019769],109.114%
24,CCN(CCN1CCOCC1)C(=O)c1[nH]c2c(F)cccc2c1C [CBK306772],118.614%
25,Cc1nc2cc(C(=O)N(C)CCN3CCCCC3)ccc2n1C [CBK281854],157.344%
